Test results: US10800809 (dated 2020)

Assay: general procedure: solution-phase peptide synthesis; PyBOP/HOBt/diisopropyl ethyl amine

Substance: carfilzomib
- purity (crude or final not stated) (coupling step, HPLC, maleate): 26%
- final HPLC purity (coupling step, maleate): 25.91%
- final HPLC purity (coupling step, maleate salt): 99%
- final HPLC purity (late stage modification step, maleate salt): 99.8%
- final HPLC purity (purification step, maleate salt): 99.8%
